This is one part of the list.

By UniProt entry, the sequences of proteins in these tests, tags left out.
UniProt Q0JBA9, entry or part of it: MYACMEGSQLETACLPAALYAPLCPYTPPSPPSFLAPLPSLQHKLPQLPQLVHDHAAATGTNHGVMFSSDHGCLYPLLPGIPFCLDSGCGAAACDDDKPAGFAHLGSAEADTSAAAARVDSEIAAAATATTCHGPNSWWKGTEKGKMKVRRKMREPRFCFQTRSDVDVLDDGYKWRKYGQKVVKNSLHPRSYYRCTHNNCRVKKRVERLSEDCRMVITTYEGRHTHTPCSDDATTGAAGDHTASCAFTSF

The experiment deals with OsWRKY34 (Oryza sativa, UniProt Q0JBA9 1-250). Description: protein-binding microarray (RPBM); PBS, 2% BSA, 51.3 ng/ul salmon testes DNA, 50 uM zinc acetate, 200 nM TF, 25 C, 1 h; high values mean tight binding. The settings on record: protein: recombinant; tags: N-terminal polyhistidine and DsRed monomer fusion (pET32a); label: CyDye5-dUTP incorporated in the synthesized complementary strand; 3' TTTTT single-stranded linker to array surface; dsDNA, one strand shown. The gist of the method: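 Polyhistidine-tagged DsRed fusions of transcription factors, joined at the N-terminus, were expressed in E. coli BL21-CodonPlus and isolated on Ni–NTA. They were incubated at 200 nM for 1 h at 25 °C on a custom Agilent array, double-stranded and BSA-blocked, in PBS with 2% BSA, salmon testes DNA and 50 µM zinc acetate. The binding signal is per-feature fluorescence intensity (arbitrary units) read on an Axon 4000B scanner after washing.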
Turning to “TCTCTCTGGTCACAAGTACTTGTCACTTTGAACATGCCTTCGGAGTCACCTAGTGCAG”, the binding signal is 13500 fluorescence intensity (a.u.). In the case of “CTCTATTCTGCTATGCCTCTATCAATTTACTTTGCAATTTCGGAGTCACCTAGTGCAG”, the binding signal is 8410 fluorescence intensity (a.u.). Turning to “CCCTTTGCTCCGCTCACACTGCACAGCGCCACCACACTGCCGGAGTCACCTAGTGCAG”, the binding signal is 10300 fluorescence intensity (a.u.).

“CGCGAGCCTCACCCGGTCGCAACCCCGACCCGACCCGCAACGGAGTCACCTAGTGCAG”: the binding signal is 8520 fluorescence intensity (a.u.). For “AAGGTTTAATTTGGTCTTTCACGTTTTATTTTGTCCATATCGGAGTCACCTAGTGCAG” the value was 8370 fluorescence intensity (a.u.). Then “AGTATCAGGTTCTTTTATTTATTTATATATATATATATATCGGAGTCACCTAGTGCAG”, with 8460 fluorescence intensity (a.u.); and “GCTCACTTCTACTACTACTTAGCACTTCACTTTGTCACCGCGGAGTCACCTAGTGCAG”, with 9850 fluorescence intensity (a.u.); and “CAAGTCAATTTTTTCCTTTCGTCGCCACGGTCGCTGAAAACGGAGTCACCTAGTGCAG”, with 9850 fluorescence intensity (a.u.).

“GATGTCCGCGCTCCATGTCCCACACTGTTCTACTTTCAGGCGGAGTCACCTAGTGCAG”: the binding signal was 10400 fluorescence intensity (a.u.). With “GATGGCGACGACAGGCTGCGGGCGGAGCAGAGGGGCGGGCCGGAGTCACCTAGTGCAG”, the binding signal is 8640 fluorescence intensity (a.u.).

For the sequence “CTCTTATAACCACTTCTTTTTAAATCATTTGTTTATATGTCGGAGTCACCTAGTGCAG”, the binding signal is 10200 fluorescence intensity (a.u.). Regarding “GTTTTGACCCGGTTTTGGTCTACGTGGCGCTGAGTCAGCGCGGAGTCACCTAGTGCAG”, the binding signal was 8660 fluorescence intensity (a.u.).

As for “GATAGATGATTTACCAAGGCTCTTGTTCATATTGTTCAGTCGGAGTCACCTAGTGCAG”, the binding signal was 8660 fluorescence intensity (a.u.). As for “TGGGTCAGTCTTCTATCAAGATTTATTTCGTCTATCTTACCGGAGTCACCTAGTGCAG”, the binding signal was 8960 fluorescence intensity (a.u.). Regarding “GTTTTTCCAGCGCCCAAATCTCTCGGCGGGGACCTCCATGCGGAGTCACCTAGTGCAG”, the binding signal is 8310 fluorescence intensity (a.u.). For “ACGCGCGCATCTTCTACGACTTCCCGCGCCGCCGCTTCGCCGGAGTCACCTAGTGCAG” the value was 10500 fluorescence intensity (a.u.). For “CCACACAACGACGTCGCCACTCGCACCGTCCAACCGCGTCCGGAGTCACCTAGTGCAG”, the binding signal was 12400 fluorescence intensity (a.u.).

With “ACCAATATGTTTCCATCTATATAGTTATGTTTCCGGTTTTCGGAGTCACCTAGTGCAG”, the binding signal was 15500 fluorescence intensity (a.u.). For “GGCAGAGAGGGTGGATGAGGCGGTGTGGGCGTCGCCGACGCGGAGTCACCTAGTGCAG” the value was 8090 fluorescence intensity (a.u.). As to “GCCGCATGGTGACCGTTCTTCTCTCCTACAGGTGGTTCAACGGAGTCACCTAGTGCAG”, the binding signal was 8070 fluorescence intensity (a.u.). On to “ACCTCACCGCCATTACTAGCAAAGCCCGCGACAAAACGACCGGAGTCACCTAGTGCAG”, for which the binding signal is 8020 fluorescence intensity (a.u.). On to “GTTTCTTTCCTACGTACTTCTCGCATTCCTAATTTTAGCCCGGAGTCACCTAGTGCAG”, for which the binding signal is 15700 fluorescence intensity (a.u.).

Turning to “AATCTGGTCGAATGTTTTTACTGTTTTAATTTTGAATTCCCGGAGTCACCTAGTGCAG”, the binding signal was 9950 fluorescence intensity (a.u.).

Take “TTCAGTGCCCTTTAATTAGTTCACACGCTCACGTCTCAAACGGAGTCACCTAGTGCAG”: the binding signal is 10600 fluorescence intensity (a.u.). Turning to “GTTTCTCTGGCCATTTGATTCACCTACTCCTGATTCCAGTCGGAGTCACCTAGTGCAG”, the binding signal is 9080 fluorescence intensity (a.u.). For “ATGTCATGTGCTAACAGTGTGCTAGTTCGTTCGTTTCTTTCGGAGTCACCTAGTGCAG” the value was 9940 fluorescence intensity (a.u.). Take “GATTCAGGCCATTTTCAGCGCCTCTAGATCCTCTATGGTACGGAGTCACCTAGTGCAG”: the binding signal is 8840 fluorescence intensity (a.u.). Regarding “TTACCTAGTTCTACCTCTAGCTATTCAGATAATTTTCCTTCGGAGTCACCTAGTGCAG”, the binding signal was 9300 fluorescence intensity (a.u.). Then “CCCTATGTTCATATTCCTTTTGACTTTTACTCTATTCAAACGGAGTCACCTAGTGCAG”, with 13000 fluorescence intensity (a.u.); and “CCACCTCTTTATGGTCAAAGATTCACCGATTTCTATTTTCCGGAGTCACCTAGTGCAG”, with 8140 fluorescence intensity (a.u.); and “ACCACCAAGCTGACTCCCGGTCCATCACCGCAATACTCTCCGGAGTCACCTAGTGCAG”, with 8050 fluorescence intensity (a.u.).

“TGGGGTTTAAAGTTTCACTTTCTGGACTGTGTGTTCTTCTCGGAGTCACCTAGTGCAG”: the binding signal is 13000 fluorescence intensity (a.u.).

With “GCTAGCTCGCGCCGCCGCCGCCGCCGTCGCCGCCGCCATGCGGAGTCACCTAGTGCAG”, the binding signal was 8360 fluorescence intensity (a.u.). For “TCACTACTATCTACTACCTAGCTAGTCGCAGTTTAATTTACGGAGTCACCTAGTGCAG”, the binding signal was 8970 fluorescence intensity (a.u.). For “TCTATCATCCAATTCATACGTTTTATCTGTGGCTAATCGACGGAGTCACCTAGTGCAG” the value was 10500 fluorescence intensity (a.u.). In the case of “GTCATTTATTTTTACCAACGTTTGACTATTCGTCTTATTTCGGAGTCACCTAGTGCAG”, the binding signal was 9430 fluorescence intensity (a.u.). As for “AGTCATATGTTTGCTCTCTCTTAATATCAATATAATACTACGGAGTCACCTAGTGCAG”, the binding signal is 9670 fluorescence intensity (a.u.).

In the case of “ACATGGAAATTGAGCCTAATGGCTATCGTATACACTTGCACGGAGTCACCTAGTGCAG”, the binding signal is 8750 fluorescence intensity (a.u.). Regarding “ACGGCCAATCTCTGCCCCTTGCTACCTCCCGCGGCGCCGCCGGAGTCACCTAGTGCAG”, the binding signal was 8680 fluorescence intensity (a.u.). Turning to “AGCTAGGTGATATTATATTGTTTTGTTGCCTACATAAATCCGGAGTCACCTAGTGCAG”, the binding signal is 8520 fluorescence intensity (a.u.). Take “TTTTTTTTCTCCTACTTTCGGTACGTCTTTTTCCCAACCACGGAGTCACCTAGTGCAG”: the binding signal was 8420 fluorescence intensity (a.u.). Turning to “CTAGGTGGATAAGGAGTGGTGGGTGGTGATTTTTTAATGGCGGAGTCACCTAGTGCAG”, the binding signal is 15000 fluorescence intensity (a.u.). With “GGGTTCTTATATGGTTTTTCTTTAAATATTGCTTCTTTTTCGGAGTCACCTAGTGCAG”, the binding signal was 8940 fluorescence intensity (a.u.). For “ACATGCTGGCATTTTGTAAGGTACTGTTTTTATGCTCTTGCGGAGTCACCTAGTGCAG”, the binding signal was 8160 fluorescence intensity (a.u.).

Turning to “ACTCGGCATATGATTCATACCCTTTTTTTTTCTATTTCTACGGAGTCACCTAGTGCAG”, the binding signal was 9370 fluorescence intensity (a.u.). Consider “GTTCCTATTTCTTCAGTAACTATGTTCCTTTTATCTAAGTCGGAGTCACCTAGTGCAG”, for which the binding signal is 11300 fluorescence intensity (a.u.).

“GCTGCCTAGCTACAAAGTAGGAAACATGGTTGGTTTTGTCCGGAGTCACCTAGTGCAG”: the binding signal was 8320 fluorescence intensity (a.u.).

With “CCTTGCGTCTCTTTGTTTCATTGCGTGCTGTTCATCTTCTCGGAGTCACCTAGTGCAG”, the binding signal was 11500 fluorescence intensity (a.u.). Regarding “TCTCCCCGTCACGGGCCCGGCCACCACCGGCCGCTTCTCCCGGAGTCACCTAGTGCAG”, the binding signal was 8300 fluorescence intensity (a.u.). With “GGGACTGAGCTACTAAGTGATCGTGGTTTTTTTTTCACTCCGGAGTCACCTAGTGCAG”, the binding signal is 11200 fluorescence intensity (a.u.). Then “GCGCCGCGCCACCGCCGCTCGTCTCCCATGTCTGTGTATACGGAGTCACCTAGTGCAG”, with 10000 fluorescence intensity (a.u.); and “ATTATCCGACCATATCCACTCTGTTTTTATTCCTAATCATCGGAGTCACCTAGTGCAG”, with 9880 fluorescence intensity (a.u.). Consider “GCCCATTTACCCACAACATTCTATTGAATGCATATTTCTCCGGAGTCACCTAGTGCAG”, for which the binding signal was 9470 fluorescence intensity (a.u.). With “CTTTGCACTTAAAGCTTTATTTTAGTTCTGAAATCCCAATCGGAGTCACCTAGTGCAG”, the binding signal was 8260 fluorescence intensity (a.u.).

The record behind these values is paper PMC7819943, “Rice protein-binding microarrays: a tool to detect cis-acting elements near promoter regions in rice”.
